Test results taken from patent US20240400715A1.
Numbering of substitutions follows the chain as printed. No constants are given. Whether binding was seen depends on the method and setting. For some of these results: Binding can be weak; no strength is given.

B1: 305 (TA6), configuration of FIG. 1W (bispecific antibody, IgG4)
heavy: EVQLVQSGAEVKKPGASVKVSCKASGYTFTNYYIHWVRQAPGQGLEWIGWIYPGDGNTKYNEKFKGRATLTADTSTSTAYLELSSLRSEDTAVYYCARDSYSNYYFDYWGQGTLVTVSSASTKGPSVFPLAPCSRSTSESTAALGCLVKDYFPEPVTVSWNSGALTSGVHTFPAVLQSSGLYSLSSVVTVPSSSLGTKTYTCNVDHKPSNTKVDKRVESKYGPPCPPCPAPEAAGGPSVFLFPPKPKDTLMISRTPEVTCVVVDVSQEDPEVQFNWYVDGVEVHNAKTKPREEQFNSTYRVVSVLTVLHQDWLNGKEYKCKVSNKGLPSSIEKTISKAKGQPREPQVYTLPPCQEEMTKNQVSLWCLVKGFYPSDIAVEWESNGQPENNYKTTPPVLDSDGSFFLYSRLTVDKSRWQEGNVFSCSVMHEALHNHYTQKSLSLSL
chain: EVQLVESGGGFVQAGESLTLSCTSSTLTFTPYRMAWYRQAPGKQRDLVADISSGDGRTTNYADFAKGRFTISRDNIKNTVFLRMTNLKPEDTAVYYCNTFVSFVGIARSWGQGTQVTVSSESKYGPPCPPCPAPEAAGGPSVFLFPPKPKDTLMISRTPEVTCVVVDVSQEDPEVQFNWYVDGVEVHNAKTKPREEQFNSTYRVVSVLTVLHQDWLNGKEYKCKVSNKGLPSSIEKTISKAKGQPREPQVCTLPPSQEEMTKNQVSLSCAVKGFYPSDIAVEWESNGQPENNYKTTPPVLDSDGSFFLVSRLTVDKSRWQEGNVFSCSVMHEALHNRFTQKSLSLSL
light: DIVMTQSPDSLAVSLGERATINCKSSQSLLNSRTRKNYLAWYQQKPGQPPKLLIYWASTRESGVPDRFSGSGSGTDFTLTISSLQAEDVAVYYCTQSFILRTFGQGTKVEIK
B2: 311 (TA6), configuration of FIG. 1X (bispecific antibody, IgG4)
heavy: EVQLVQSGAEVKKPGASVKVSCKASGYTFTNYYIHWVRQAPGQGLEWIGWIYPGDGNTKYNEKFKGRATLTADTSTSTAYLELSSLRSEDTAVYYCARDSYSNYYFDYWGQGTLVTVSSASTKGPSVFPLAPCSRSTSESTAALGCLVKDYFPEPVTVSWNSGALTSGVHTFPAVLQSSGLYSLSSVVTVPSSSLGTKTYTCNVDHKPSNTKVDKRVESKYGPPCPPCPAPEAAGGPSVFLFPPKPKDTLMISRTPEVTCVVVDVSQEDPEVQFNWYVDGVEVHNAKTKPREEQFNSTYRVVSVLTVLHQDWLNGKEYKCKVSNKGLPSSIEKTISKAKGQPREPQVYTLPPCQEEMTKNQVSLWCLVKGFYPSDIAVEWESNGQPENNYKTTPPVLDSDGSFFLYSRLTVDKSRWQEGNVFSCSVMHEALHNHYTQKSLSLSLGGGGSGGGGSEVQLVESGGGFVQAGESLTLSCTSSTLTFTPYRMAWYRQAPGKQRDLVADISSGDGRTTNYADFAKGRFTISRDNIKNTVFLRMTNLKPEDTAVYYCNTFVSFVGIARSWGQGTQVTVSS
chain: ESKYGPPCPPCPAPEAAGGPSVFLFPPKPKDTLMISRTPEVTCVVVDVSQEDPEVQFNWYVDGVEVHNAKTKPREEQFNSTYRVVSVLTVLHQDWLNGKEYKCKVSNKGLPSSIEKTISKAKGQPREPQVCTLPPSQEEMTKNQVSLSCAVKGFYPSDIAVEWESNGQPENNYKTTPPVLDSDGSFFLVSRLTVDKSRWQEGNVFSCSVMHEALHNRFTQKSLSLSL
light: B1 light
B3: Fab-Knob+CEA-Hole (101) (bispecific antibody, human IgG4 S228P, kappa, F234A L235A)
heavy: EVKLLESGGGLVQPKGSLKLSCAASGFTFNTYAMNWVRQAPGKGLEWVARIRSKYNNYATYYADSVKDRFTISRDDSQSILYLQMNNLKTEDTAMYYCVRHGNFGNSYVSWFAYWGQGTLVTVSSASTKGPSVFPLAPCSRSTSESTAALGCLVKDYFPEPVTVSWNSGALTSGVHTFPAVLQSSGLYSLSSVVTVPSSSLGTKTYTCNVDHKPSNTKVDKRVESKYGPPCPPCPAPEAAGGPSVFLFPPKPKDTLMISRTPEVTCVVVDVSQEDPEVQFNWYVDGVEVHNAKTKPREEQFNSTYRVVSVLTVLHQDWLNGKEYKCKVSNKGLPSSIEKTISKAKGQPREPQVYTLPPCQEEMTKNQVSLWCLVKGFYPSDIAVEWESNGQPENNYKTTPPVLDSDGSFFLYSRLTVDKSRWQEGNVFSCSVMHEALHNHYTQKSLSLSL
chain: B1 chain
light: QAVVTQESALTTSPGETVTLTCRSSTGAVTTSNYANWVQEKPDHLFTGLIGGTNKRAPGVPARFSGSLIGDKAALTITGAQTEDEAIYFCALWYSNLWVFGGGTKVEIKRTVAAPSVFIFPPSDEQLKSGTASVVCLLNNFYPREAKVQWKVDNALQSGNSQESVTEQDSKDSTYSLSSTLTLSKADYEKHKVYACEVTHQGLSSPVTKSFNRGEC
B4: CEA-Knob+Fab-Hole (104) (bispecific antibody, human IgG4 S228P, kappa, F234A L235A)
chain: B1 chain with C251Y, S256C, S268W, A270L, V309Y, R337H, F338Y
heavy: B3 heavy with Y354C, C359S, W371S, L373A, Y412V, H440R, Y441F
light: B3 light

Key:
[1] = molecular target: human CD3ε/δ (ACRO systems, CDD-H52W1) (human); test: ELISA, coated antigen
[2] = molecular target: Insulin (abs42019847); test: condition: ratio to PBS blank below 3; 100 nM antibody; ELISA on coated insulin

Row | Binder | binding [1] | binding [2]
1 | B1 | binds | 
2 | B2 | binds | 
3 | B3 |  | no binding
4 | B4 |  | no binding
